# According to PubChem BioAssay AID2685 (National Center for Advancing Translational Sciences (NCATS), 2010):
# This is one part of the list. Shown are side measurements of this screen, not its main read-out; they come without a call. Most of these compounds were active or inconclusive in the main read-out, so they are no random draw. Potencies come from curve fits of mixed quality, noted in brackets.
# Test: qHTS Assay for Lipid Storage Modulators in Drosophila S3 Cells;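 for cell number change: cells counted by Cell Tracker Red CMTPX staining in the red channel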
# Conditions: BODIPY lipid droplet fluorescence, 18-24 h; for cell number change: measured here: cell count max response, cells fed with added oleic acid
# Outline: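 Drosophila S3 cells got compounds at several concentrations plus oleic acid (400 uM solution). Laser-scanning cytometry with 488 nm excitation read lipid droplets at 500-530 nm and cells at 575-640 nm. Percent activity was relative to 20 uM Triacsin C.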
# [1] = measured here: lipid fluorescence (Fed channel) AC50, cells fed with added oleic acid
# [2] = measured here: cell number channel AC50, cells fed with added oleic acid
SMILES,cell number change,AC50 [1],AC50 [2]
Cc1n[nH]c(=S)n1/N=C/c1ccccc1OCc1ccc(Cl)cc1,-3.71%,"20.6 µM [falling, partial curve, poor fit]",–
CCOc1ccccc1NC(=O)NCCCCc1ccccc1,-47.5%,"11.2 µM [falling, partial curve]","22.4 µM [falling, single point]"
Cc1ccc(SCC(=O)Nc2oc(C)c3c(C)n[nH]c(=O)c23)cc1C,30.6%,"23.1 µM [rising, single point]","20.6 µM [rising, single point]"
Cc1ccc(CN2CCN(Cc3cnc(N(C)C)s3)CC2CCO)o1 (stereo not drawn),0.141%,"3.26 µM [falling, single point]",–
O=S1(=O)CCN(Cc2ccc(Cl)c(C(F)(F)F)c2)CC1,37.9%,–,"0.651 µM [falling, single point]"
Nc1nc(CSCCO)nc(Nc2ccccc2)n1,20%,–,–
O=C(NCc1ccccn1)c1cc(-c2ccccc2)nc2ccccc12,11.5%,"0.0517 µM [rising, partial curve, poor fit]",–
COc1ccc(NC(=S)N2CCCC2)cc1OC,-41.2%,–,–
C=CC[n+]1c(-c2ccc(C)cc2)csc1Nc1ccc(NC(C)=O)cc1,–,–,"0.116 µM [rising, single point]"
O=C(Cn1ccc2ccccc2c1=O)NCCC(=O)N1CCN(C2CCCCC2)CC1,-106%,"29.1 µM [falling, single point]","8.2 µM [falling, partial curve]"
COCCCNC(=O)CN1C(=O)c2ccccc2C1=O,-34.2%,"2.31 µM [falling, full curve]","1.46 µM [falling, full curve]"
Cc1ccc(S(=O)(=O)N2CCN(c3ccc(C(=O)N4CCOCC4)cc3[N+](=O)[O-])CC2)cc1,-17.6%,"20.6 µM [falling, partial curve]",–
COc1ccc(CNC(=O)CN(C(=O)c2csnn2)c2cccc3ccccc23)cc1,28.2%,"29.1 µM [rising, single point]","0.00517 µM [rising, full curve, poor fit]"
CCOC(=O)c1ccc(NC(=O)c2cccc(S(=O)(=O)N3CCN(C(C)=O)CC3)c2)cc1,-23.7%,"5.62 µM [falling, single point]",–
Cc1ccc(C(=O)NCC(=O)OCCCn2c(=O)[nH]c3ccccc32)cc1,-15.3%,–,–
O=C(CSc1nnc(-c2ccccc2Br)o1)N1CCN(C(=O)c2ccco2)CC1,-23.9%,"0.00461 µM [rising, full curve, poor fit]",–
COc1cccc(-c2ccc3c(c2)S(=O)(=O)c2cccc(C(=O)O)c2C3=O)c1OC,–,"0.82 µM [falling, partial curve]",–
CN(CC1CCOCC1)C(=O)c1ccc2nc(Cc3cccc(Cl)c3)oc2c1,-1.76%,"1.84 µM [falling, single point]",–
Cc1ccc(N/C=C2\C(=O)C3(C)CCC2C3(C)C)cc1C (stereo not drawn),23.9%,"1.03 µM [rising, full curve]",–
Cc1c(S(=O)(=O)Nc2ccc(Br)cc2)c(=O)n(C)c(=O)n1C,-1.15%,"5.17 µM [rising, full curve]","0.651 µM [rising, full curve, poor fit]"

SMILES,cell number change,AC50 [1],AC50 [2]
Cc1cccc(-c2nnc(NC(=O)c3ccc(Cl)cc3)o2)c1,-27.3%,–,–
Cc1nn(C(C)C(=O)NCc2ccco2)c(C)c1[N+](=O)[O-] (stereo not drawn),-40.9%,"29.1 µM [falling, single point]","29.1 µM [falling, single point]"
COc1ccc(C(=O)Nc2ccc(C(=O)N3CCC(C)CC3)cc2)cc1OC,8.11%,–,–
Cn1c(=O)c2c(-c3ccccc3)n(Cc3cccnc3)cc2n(C)c1=O,-4.1%,"5.17 µM [falling, single point]","5.8 µM [falling, single point]"
COc1cc(OC)cc(N2CC(C)(C)C2=O)c1,-20.5%,–,–
CN(C)C(=O)c1ccc(NC(=O)c2cc(-n3cnnc3)ccc2Cl)cc1,1.92%,–,–
CCC1=NN(C(=O)c2cccc(Br)c2)C(O)(c2ccc(Br)cc2)C1 (stereo not drawn),–,"1.84 µM [falling, partial curve, poor fit]","4.11 µM [falling, partial curve]"
O=C(O)c1ccc(NS(=O)(=O)c2cc(Cl)sc2Cl)cc1,-12.7%,–,–
CC(=O)Nc1ccc(NC(=O)c2ccccc2Nc2ccccc2)cc1,9.58%,–,–
COc1ccc(-c2cc(C#N)nc(Oc3ccc(Cl)cc3)n2)cc1,-31.8%,"2.31 µM [falling, full curve]","4.61 µM [falling, full curve, poor fit]"
CCCN(CCC)S(=O)(=O)c1ccc(C(=O)NCc2n[nH]c(=S)n2-c2ccc(Cl)c(Cl)c2)cc1,-9.23%,"0.184 µM [rising, single point]","0.00517 µM [rising, full curve, poor fit]"
COCCCNC(=O)C1CCCCN1S(=O)(=O)c1ccc(F)cc1 (stereo not drawn),4.31%,–,–
COc1ccc(CN2CCNC(=O)C2CC(=O)NCCSc2nccn2C)c(OC)c1 (stereo not drawn),7.44%,"4.61 µM [falling, full curve, poor fit]",–
O=C(O)c1ccc(/C=N/N2CCN(C3c4ccccc4-c4ccccc43)CC2)cc1,–,"2.91 µM [rising, single point]",–
CC(C)n1nnnc1SCC(=O)N1CCN(C(=O)c2ccco2)CC1,-16.9%,"16.4 µM [falling, partial curve]",–
CC(C)CCNC(=O)Nc1ccc2c(c1)N(C)C(=O)CS2,-17%,–,–
Cc1ccc(/C=N/NC(=O)c2cc(-c3ccccc3)nc3ccccc23)o1,-5.9%,–,"4.61 µM [falling, single point]"
CCC1CCCCN1C(=O)N[C@@H](CCSC)C(=O)OC (stereo partly drawn),-27.4%,"4.11 µM [falling, full curve]",–
CCN1CCc2nc(NC(=O)CC(c3ccccc3)c3ccccc3)sc2C1,–,"29.1 µM [falling, partial curve, poor fit]",–

# Look-ups from above.
# AC50 [1], Cc1ccc(N/C=C2\C(=O)C3(C)CCC2C3(C)C)cc1C (stereo not drawn) is entered as 1.03 µM [rising, full curve]
# cell number change, O=S1(=O)CCN(Cc2ccc(Cl)c(C(F)(F)F)c2)CC1 is entered as 37.9%
